Experimental data taken from PubChem BioAssay AID1347076 (National Center for Advancing Translational Sciences (NCATS), 2019).
Among all 400,000 compounds or so, about 13,000 (3.2%) were called active. The shares of active, inactive and inconclusive entries below differ from those in the screen. Calls come from the whole dose curve; as a rule, active = well fitted cell-killing curve with a large enough effect; inconclusive = small, poorly fitted or top-dose-only effect, or effect the other way; inactive = flat fitted curve, though single readings scatter. A potency beside an inconclusive call is a rough fit, not a confirmed value.
% is set by controls: 0 for no effect and ±100 for the full control effect; potency is the fitted concentration of half-maximal effect.

Assay: qHTS assay for MDR1-selective chemotherapeutics: Primary screen using the drug-selected MDR subline cells KB-V1; note: nearly all actives have a fitted effect of over 60% in size
Details: KB-V1 MDR cells viability, CellTiter-Glo, 72 h; activity change, negative = cytotoxicity: at 46.1 µM (top of the series)
How it was run: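 Compound-treated KB-V1 multidrug-resistant cells, 72 h, 37 degrees C; viability by CellTiter-Glo. Fitted qHTS curves give the values.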
In the case of CC(C)CNC(=S)N1CCN(c2nc(-c3ccc(Cl)cc3)cs2)CC1, the “activity change, negative = cytotoxicity” value is reported as inactive: 10.2%. In the case of Cc1oc(C(=O)O)cc1CSCc1cc(C(=O)O)c(C)o1, the Potency is reported as inconclusive: 20.6 µM [rising, single point]. For O=C1CC2(CCN(C(=O)C3CC(=O)N(c4ccc(F)cc4)C3)CC2)Oc2ccccc21 (stereo unspecified), the Potency was inconclusive: 20.6 µM [cytotoxic, single point]. In the case of COc1ccc(N2CCN(CC(=O)NC(C)c3ccccc3)CC2)cc1 (stereo unspecified), the Potency is reported as inconclusive: 29.1 µM [cytotoxic, single point]. With Cc1ccn2cc(CCNC(=O)c3ccc(Br)o3)nc2c1 the Potency was inconclusive: 29.1 µM [rising, single point]. With C=C1NN(Cc2ccccc2)C(=O)N1c1ccc(OC)cc1 the “activity change, negative = cytotoxicity” value was inactive: 0%. For Cc1ccc(Cn2c(=O)n(CCCCC(=O)NCc3ccccc3Cl)c(=O)c3ccccc32)cc1, the Potency was inconclusive: 13 µM [cytotoxic, partial curve, poor fit]. For COc1ccc2oc(C(=O)N(Cc3ccco3)Cc3cccs3)c(C)c2c1, the Potency was inconclusive: 7.31 µM [cytotoxic, partial curve]. With COc1ccc(CN(C)CCCn2cnc3c(OC)ncnc32)cc1OC the “activity change, negative = cytotoxicity” value was inactive: 4.1%. With CSc1c(SCc2ccccc2)cnn(Cc2ccccc2)c1=O the Potency was inconclusive: 18.4 µM [cytotoxic, single point]. In the case of CC(=O)NC(Cc1cccc(C)c1)C(=O)NC1CCN(c2ncccc2[N+](=O)[O-])CC1 (stereo unspecified), the Potency is reported as active: 14.6 µM. In the case of CCOc1ccccc1Nc1sc(C(=O)c2ccccc2)c(N)c1S(=O)(=O)c1ccc(C)cc1, the Potency is reported as inconclusive: 29.1 µM [cytotoxic, single point]. In the case of c1ccc(Nc2nc(N3CCCC3)nc(N3CCCC3)n2)cc1, the Potency is reported as inconclusive: 14.6 µM [cytotoxic, single point]. For Cc1ccc(C(C(=O)NCc2ccco2)N(Cc2ccco2)C(=O)CNC(=O)c2ccco2)cc1 (stereo unspecified), the Potency was inconclusive: 8.2 µM [cytotoxic, partial curve, poor fit]. With COc1ccc(-c2cc(NCCc3ccncc3)n3ncnc3n2)cc1 the “activity change, negative = cytotoxicity” value was inactive: 3.74%. In the case of CCOc1ccc(N(C(=O)c2snc(C(N)=O)c2N)C(C(=O)NC2CCCC2)C(C)C)cc1 (stereo unspecified), the Potency is reported as inconclusive: 14.6 µM [cytotoxic, partial curve, poor fit]. For Cc1ccc(/C=C/C(=O)N2CCC(Cc3ccccc3)CC2)cc1, the Potency was active: 20.6 µM. With CC(NC(=O)c1ccc(-c2ccccc2)cc1)C(c1ccccc1)N1CCOCC1 (stereo unspecified) the “activity change, negative = cytotoxicity” value was inactive: -16.5%. For CC(=O)Nc1ccc(S(=O)(=O)NN=CCCc2ccccc2)cc1, the “activity change, negative = cytotoxicity” value was inactive: 4.19%. For COc1ccc(OC)c(NC(=O)c2cn(CC(C)C)c(=O)c3cc(OC)c(OC)cc23)c1, the “activity change, negative = cytotoxicity” value was inactive: -27.2%. With Cc1cc(CN(Nc2ccccc2)c2ccccc2)cc(C)n1 the Potency was inconclusive: 10.3 µM [cytotoxic, partial curve, poor fit]. For CCN1CCCC1CN(Cc1cc2cc(OC)ccc2[nH]c1=O)C(=O)NCc1ccccc1 (stereo unspecified), the Potency was inconclusive: 16.4 µM [rising, partial curve, poor fit]. With COC(=O)CSC1=C(C#N)C(=O)NC(c2ccccc2)S1 (stereo unspecified) the Potency was inconclusive: 16.4 µM [cytotoxic, single point]. For Cc1ccc(CCNC(=O)c2cc3c(-c4ccccc4F)nn(C)c3s2)cc1, the “activity change, negative = cytotoxicity” value was inactive: 0.443%. With CCOC(=O)c1c(CN(C)C)n(-c2ccccc2)c2cc(Br)c(OC)cc12 the Potency was active: 20.6 µM. For Cc1cc2nc(-c3ccc(SCc4ccccn4)nc3)[nH]c2cc1C, the Potency was active: 16.4 µM. For Cc1ccc(S(=O)(=O)N2CCOCC2)cc1NC(=O)CN(C)C1CCS(=O)(=O)C1 (stereo unspecified), the “activity change, negative = cytotoxicity” value was inactive: -1.12%. In the case of Cc1oc(-c2ccccc2)nc1CS(=O)CC(=O)NC1CCCC1 (stereo unspecified), the “activity change, negative = cytotoxicity” value is reported as inactive: 1.42%. With COc1ccc(S(=O)(=O)/N=C2\C=C(Nc3ccc(O)cc3)C(=O)c3ccccc32)cc1 the Potency was active: 16.4 µM. With CC1(C)CC(=O)c2c(oc3c(Cl)cc(NS(=O)(=O)c4ccc(Br)cc4)cc23)C1 the Potency was inconclusive: 14.6 µM [rising, partial curve, poor fit]. For Cc1ccc(OCC(=O)Oc2c(C)cccc2C)cc1C, the Potency was inconclusive: 29.1 µM [cytotoxic, single point]. In the case of Cc1ccc2ccc(C3C(=O)c4ccccc4C3=O)nc2c1, the “activity change, negative = cytotoxicity” value is reported as inactive: -4.97%. With O=c1c2cc(NC(=S)NCCCN3CCC(Cc4ccccc4)CC3)ccc2nc2n1CCCCC2 the Potency was inconclusive: 25.9 µM [cytotoxic, single point]. In the case of CCOC(=O)C1=C(CSc2nc(-c3ccccc3)ccc2C#N)OC(N)=C(C#N)C1c1cccnc1 (stereo unspecified), the “activity change, negative = cytotoxicity” value is reported as inactive: -0.952%. With O=C(CSC1=NCCS1)Nc1cccc2ccccc12 the “activity change, negative = cytotoxicity” value was inactive: -12.4%. In the case of CC(OC(=O)/C(C#N)=C/c1ccc(N(C)C)cc1)C(=O)N(C)c1ccccc1 (stereo unspecified), the Potency is reported as active: 18.4 µM. For CC(C)CC1Nc2ccc(C(=O)NCCCN3CCCCC3C)cc2NC1=O (stereo unspecified), the Potency was inconclusive: 5.8 µM [rising, full curve]. For COC(=O)c1cc(Cl)ccc1NC(=O)CSc1ncc(S(=O)(=O)c2ccc(Br)cc2)c(=O)[nH]1, the Potency was inconclusive: 29.1 µM [rising, single point]. In the case of CCOC(=O)c1c(NC(=O)/C=C/c2ccc(C)cc2)sc2c1CCCC2, the “activity change, negative = cytotoxicity” value is reported as inactive: 0%. For COc1ccc(-n2c(Cc3cccn3C)nnc2SCC(=O)N2CCCc3ccccc32)cc1, the Potency was inconclusive: 16.4 µM [cytotoxic, single point]. In the case of CCOc1ccc(OCC)c(NC(=O)CN2CCC(NC(=O)c3cccc(F)c3)CC2)c1, the Potency is reported as inconclusive: 5.17 µM [cytotoxic, partial curve, poor fit]. For Cc1ccc(Nc2c(-c3ccc(C)s3)nc3ncccn23)cc1, the “activity change, negative = cytotoxicity” value was inactive: -2.14%. In the case of O=C(CN(CCc1ccccc1)C(=O)c1csnn1)NC1CCCC1, the Potency is reported as inconclusive: 0.517 µM [rising, full curve, poor fit]. In the case of O=C(NCc1ccco1)C(=O)NCC1OCCN1S(=O)(=O)c1ccccc1 (stereo unspecified), the Potency is reported as inconclusive: 18.4 µM [rising, partial curve, poor fit]. In the case of COc1ccc(NC(=O)COc2ccc3c(c2)CCC3)cc1, the Potency is reported as inconclusive: 6.51 µM [rising, full curve, poor fit]. For CCOC(=O)c1c(C)[nH]c(C(=O)OCC(=O)N2CCN(S(=O)(=O)c3ccccc3)CC2)c1C, the Potency was inconclusive: 29.1 µM [cytotoxic, single point].
